# Data from the supplement of paper PMC11438910.
# The other results are listed elsewhere or left out. Most of these values are background signal.
# Columns and labels:
# Assay in all cases: fluorescence intensity of antibody binding to polysaccharide-coupled beads; higher = stronger binding
# [1] = molecular target: pneumococcal polysaccharide Pn25A
# [2] = molecular target: pneumococcal polysaccharide Pn25F
# [3] = molecular target: pneumococcal polysaccharide Pn27
# [4] = molecular target: pneumococcal polysaccharide Pn28A
# [5] = molecular target: pneumococcal polysaccharide Pn28F
# [6] = molecular target: pneumococcal polysaccharide Pn29
# [7] = molecular target: pneumococcal polysaccharide Pn3
# [8] = molecular target: pneumococcal polysaccharide Pn31
# [9] = molecular target: pneumococcal polysaccharide Pn32A
# [10] = molecular target: pneumococcal polysaccharide Pn32F
# [11] = molecular target: pneumococcal polysaccharide Pn33A
# [12] = molecular target: pneumococcal polysaccharide Pn33B
# [13] = antibody concentration 0.1 ng/mL
# [14] = antibody concentration 0.534724 ng/mL
# [15] = antibody concentration 2.8593 ng/mL
# [16] = antibody concentration 15.2894 ng/mL
# [17] = antibody concentration 81.7561 ng/mL
# [18] = antibody concentration 437.17 ng/mL
# [19] = antibody concentration 2337.65 ng/mL
# [20] = antibody concentration 12500 ng/mL
binder,measurement,setting,value
4-127.5 (protein) chain 1: QVQLQESGPGLVKPSETLSLTCAVSGYSISSGYGWSWIRQPPGKGLEWIGYIGGSDSSTNYNPSLKSRVTISKDTSKNQLSLKLRSVTAADTAVYYCGSRGAVAGLGGLDSWGQGLLVTVSS chain 2: QSVLTQPPSVSGAPGQRVTISCTGSSSNIGAGYGVQWYQQLPGTAPKLLIYENNKRPSGVFDRFSGSQSGTSGSLTITGLQSEDEADYYCQSYDSSLKAVLFGGGTRLTVL,fluorescence intensity,[1]; [13],25.5 MFI
same,fluorescence intensity,[1]; [14],24.5 MFI
same,fluorescence intensity,[1]; [15],25.5 MFI
same,fluorescence intensity,[1]; [16],25 MFI
same,fluorescence intensity,[1]; [17],24 MFI
same,fluorescence intensity,[1]; [18],25.2 MFI
same,fluorescence intensity,[1]; [19],29 MFI
same,fluorescence intensity,[1]; [20],31 MFI
same,fluorescence intensity,[2]; [13],30.8 MFI
same,fluorescence intensity,[2]; [14],32 MFI
same,fluorescence intensity,[2]; [15],31.5 MFI
same,fluorescence intensity,[2]; [16],30.8 MFI
same,fluorescence intensity,[2]; [17],32 MFI
same,fluorescence intensity,[2]; [18],32 MFI
same,fluorescence intensity,[2]; [19],31.5 MFI
same,fluorescence intensity,[2]; [20],42.5 MFI
same,fluorescence intensity,[3]; [13],17.5 MFI
same,fluorescence intensity,[3]; [14],18.5 MFI
same,fluorescence intensity,[3]; [15],17.5 MFI
same,fluorescence intensity,[3]; [16],17.8 MFI
same,fluorescence intensity,[3]; [17],18 MFI
same,fluorescence intensity,[3]; [18],17.8 MFI
same,fluorescence intensity,[3]; [19],24.5 MFI
same,fluorescence intensity,[3]; [20],124 MFI
same,fluorescence intensity,[4]; [13],28.8 MFI
same,fluorescence intensity,[4]; [14],29 MFI
same,fluorescence intensity,[4]; [15],29 MFI
same,fluorescence intensity,[4]; [16],28 MFI
same,fluorescence intensity,[4]; [17],26.2 MFI
same,fluorescence intensity,[4]; [18],27.5 MFI
same,fluorescence intensity,[4]; [19],29 MFI
same,fluorescence intensity,[4]; [20],33 MFI
same,fluorescence intensity,[5]; [13],31.5 MFI
same,fluorescence intensity,[5]; [14],30 MFI
same,fluorescence intensity,[5]; [15],31.5 MFI
same,fluorescence intensity,[5]; [16],30.5 MFI
same,fluorescence intensity,[5]; [17],30 MFI
same,fluorescence intensity,[5]; [18],31.5 MFI
same,fluorescence intensity,[5]; [19],33.5 MFI
same,fluorescence intensity,[5]; [20],54.5 MFI
same,fluorescence intensity,[6]; [13],17 MFI
same,fluorescence intensity,[6]; [14],16.5 MFI
same,fluorescence intensity,[6]; [15],17.5 MFI
same,fluorescence intensity,[6]; [16],17.5 MFI
same,fluorescence intensity,[6]; [17],16.5 MFI
same,fluorescence intensity,[6]; [18],17.5 MFI
same,fluorescence intensity,[6]; [19],21.5 MFI
same,fluorescence intensity,[6]; [20],65 MFI
same,fluorescence intensity,[7]; [13],14 MFI
same,fluorescence intensity,[7]; [14],16.5 MFI
same,fluorescence intensity,[7]; [15],37.5 MFI
same,fluorescence intensity,[7]; [16],150 MFI
same,fluorescence intensity,[7]; [17],1060 MFI
same,fluorescence intensity,[7]; [18],2800 MFI
same,fluorescence intensity,[7]; [19],11700 MFI
same,fluorescence intensity,[7]; [20],12200 MFI
same,fluorescence intensity,[8]; [13],15.5 MFI
same,fluorescence intensity,[8]; [14],16 MFI
same,fluorescence intensity,[8]; [15],13 MFI
same,fluorescence intensity,[8]; [16],14.5 MFI
same,fluorescence intensity,[8]; [17],14 MFI
same,fluorescence intensity,[8]; [18],16 MFI
same,fluorescence intensity,[8]; [19],18.5 MFI
same,fluorescence intensity,[8]; [20],56 MFI
same,fluorescence intensity,[9]; [13],16.5 MFI
same,fluorescence intensity,[9]; [14],18 MFI
same,fluorescence intensity,[9]; [15],17.5 MFI
same,fluorescence intensity,[9]; [16],18.5 MFI
same,fluorescence intensity,[9]; [17],19 MFI
same,fluorescence intensity,[9]; [18],18 MFI
same,fluorescence intensity,[9]; [19],20.5 MFI
same,fluorescence intensity,[9]; [20],34.5 MFI
same,fluorescence intensity,[10]; [13],26.8 MFI
same,fluorescence intensity,[10]; [14],29 MFI
same,fluorescence intensity,[10]; [15],27 MFI
same,fluorescence intensity,[10]; [16],28 MFI
same,fluorescence intensity,[10]; [17],31.5 MFI
same,fluorescence intensity,[10]; [18],29.5 MFI
same,fluorescence intensity,[10]; [19],37.5 MFI
same,fluorescence intensity,[10]; [20],44.5 MFI
same,fluorescence intensity,[11]; [13],19.5 MFI
same,fluorescence intensity,[11]; [14],18 MFI
same,fluorescence intensity,[11]; [15],19 MFI
same,fluorescence intensity,[11]; [16],20 MFI
same,fluorescence intensity,[11]; [17],19.8 MFI
same,fluorescence intensity,[11]; [18],25 MFI
same,fluorescence intensity,[11]; [19],89.2 MFI
same,fluorescence intensity,[11]; [20],829 MFI
same,fluorescence intensity,[12]; [13],18 MFI
same,fluorescence intensity,[12]; [14],18.5 MFI

# 4 entries from above, bar-delimited.
binder | measurement | setting | value
4-127.5 (protein) chain 1: QVQLQESGPGLVKPSETLSLTCAVSGYSISSGYGWSWIRQPPGKGLEWIGYIGGSDSSTNYNPSLKSRVTISKDTSKNQLSLKLRSVTAADTAVYYCGSRGAVAGLGGLDSWGQGLLVTVSS chain 2: QSVLTQPPSVSGAPGQRVTISCTGSSSNIGAGYGVQWYQQLPGTAPKLLIYENNKRPSGVFDRFSGSQSGTSGSLTITGLQSEDEADYYCQSYDSSLKAVLFGGGTRLTVL | fluorescence intensity | [3]; [14] | 18.5 MFI
same | fluorescence intensity | [3]; [15] | 17.5 MFI
same | fluorescence intensity | [7]; [15] | 37.5 MFI
same | fluorescence intensity | [8]; [19] | 18.5 MFI
